Assay results: PubChem BioAssay AID248 (DTP/NCI, 2004)
The list does not hold the whole screen: it gathers tests that were run many times, whatever their T/C, doses with no T/C, and many T/C values between a quarter and a half above the control. Further doses and runs are listed elsewhere. T/C: endpoint of the treated group in % of that of the vehicle group. Some doses have a count of surviving animals in place of a T/C: the source holds a T/C of zero for them, seemingly a mark for toxic or unscored doses. Some doses without a T/C left all or most animals alive at the check, yet need not have been tolerated: survival well below the control is almost never listed, so the zero probably covers shortened survival too. Counts of survivors are from the toxicity check (mostly the fifth day) where no day follows; animals may have died later. Schedule codes are those of the source, taken here to give the interval after Q, in days (D) or hours (H), and the number of doses after X. Some schedules carry Z or #; the key to these is not given. Some structures stand for samples that the source files as different forms (salt, stereo form or complex); doses refer to the form tested. Some entries hold several experiments; the results are listed from low to high. For survival time, the PubChem record calls one and a half times the control and up active, and a quarter to a half above the control has no call in these data; cut-offs in other NCI protocols can differ. Additions like (4×) say how often a value occurs here. Some T/C values are followed by the survivors on the day toxicity was checked, most often the fifth; without a count, all were alive then.

System: L1210 leukemia ip in BDF1 mice, survival T/C
Test: NCI In Vivo Anticancer Drug Screen. Data for tumor model L1210 Leukemia (intraperitoneal) in B6D2F1 (BDF1) mice
Settings: T/C endpoint: mean survival time, higher T/C = longer survival
[1] = dose: 64.0 mg/kg/injection, schedule: Q01DX009 (ip), vehicle: water
[2] = dose: 150.0 mg/kg/injection, schedule: Q01DX001 (ip), vehicle: other

`Cc1c2ccncc2c(C)c2c1[nH]c1ccccc12` was tested, and the T/C [1] was 127 % of control, the survivor count [1] was 9 of 10 and 10 of 10 and the survivor count (dose: 64.0 mg/kg/injection, schedule: Q04DX003 (ip), vehicle: acid diluted with saline) was 0 of 10. For the same compound, the T/C (dose: 64.0 mg/kg/injection, schedule: Q04DX003 (ip), vehicle: clinical formulation) was 131 % of control, the T/C (dose: 64.0 mg/kg/injection, schedule: Q08DX002 (oral), vehicle: clinical formulation) was 127 % of control and the T/C (dose: 64.0 mg/kg/injection, schedule: Q## X003 (ip), vehicle: other) was 144 % of control. For the same compound, the T/C (dose: 75.0 mg/kg/injection, schedule: Q01DX001 (ip), vehicle: Klucel (hydroxypropylcellulose) (HPC)) was 138 % of control, the T/C (dose: 75.0 mg/kg/injection, schedule: Q01DX001 (ip), vehicle: other) was 128 [6 of 8 alive], 130, 151, 174 [9 of 10 alive], 177 % of control and the T/C (dose: 75.0 mg/kg/injection, schedule: Q01DX001 (ip), vehicle: saline with Tween-80) was 127 % of control. The T/C (dose: 75.0 mg/kg/injection, schedule: Q01DX001 (ip), vehicle: saline, evaluated on day 60) was 141 and 166 % of control, the T/C (dose: 75.0 mg/kg/injection, schedule: Q01DX001 (ip), vehicle: saline, run until all animals had died) was 125 and 138 % of control and the T/C (dose: 75.0 mg/kg/injection, schedule: Q01DX001 (ip), vehicle: steroid suspending solution) was 132 % of control. The T/C (dose: 75.0 mg/kg/injection, schedule: Q01DX001 (oral), vehicle: other, evaluated on day 40) was 127 % of control, the T/C (dose: 75.0 mg/kg/injection, schedule: Q01DX001 (oral), vehicle: other, evaluated on day 60) was 129 [8 of 10 alive], 130, 141 % of control and the T/C (dose: 75.0 mg/kg/injection, schedule: Q01DX001 (sc), vehicle: other) was 130 and 133 % of control. For the same compound, the T/C (dose: 75.0 mg/kg/injection, schedule: Q01DX Z (oral), vehicle: carboxymethylcellulose (CMC)) was 139 % of control, the survivor count (dose: 75.0 mg/kg/injection, schedule: Q03HX008 (ip), vehicle: steroid suspending solution) was 7 of 8 and the survivor count (dose: 75.0 mg/kg/injection, schedule: Q03HX016 (ip), vehicle: steroid suspending solution) was 6 of 8. The T/C (dose: 75.0 mg/kg/injection, schedule: Q04DX003 (ip), vehicle: Klucel (hydroxypropylcellulose) (HPC), evaluated on day 5) was 149 and 181 % of control, the T/C (dose: 75.0 mg/kg/injection, schedule: Q04DX003 (ip), vehicle: Klucel (hydroxypropylcellulose) (HPC), evaluated on day 30) was 185 % of control and the T/C (dose: 75.0 mg/kg/injection, schedule: Q04DX003 (ip), vehicle: Klucel (hydroxypropylcellulose) (HPC), evaluated on day 60) was 149, 159, 181, 198, 232 % of control. The T/C (dose: 75.0 mg/kg/injection, schedule: Q08DX002 (ip), vehicle: other) was 147 % of control, the T/C (dose: 75.0 mg/kg/injection, schedule: Q## X003 (oral), vehicle: carboxymethylcellulose (CMC)) was 145 % of control and the T/C (dose: 80.0 mg/kg/injection, schedule: Q01DX001 (ip), vehicle: acid diluted with saline) was 128 % of control. For the same compound, the T/C (dose: 80.0 mg/kg/injection, schedule: Q01DX001 (ip), vehicle: other) was 136 % of control, the T/C (dose: 80.0 mg/kg/injection, schedule: Q01DX009 (ip), vehicle: carboxymethylcellulose (CMC)) was 130 % of control and the T/C (dose: 80.0 mg/kg/injection, schedule: Q01DX009 (ip), vehicle: other) was 130 % of control. For the same compound, the survivor count (dose: 80.0 mg/kg/injection, schedule: Q04DX009 (ip), vehicle: Klucel (hydroxypropylcellulose) (HPC)) was 6 of 6, the T/C (dose: 80.0 mg/kg/injection, schedule: Q## X008 (ip), vehicle: other) was 135 % of control and the T/C (dose: 100.0 mg/kg/injection, schedule: Q01DX001 (ip), vehicle: saline) was 147 % of control. For the same compound, the T/C (dose: 100.0 mg/kg/injection, schedule: Q01DX001 (oral), vehicle: saline with Tween-80) was 131 and 135 % of control, the T/C (dose: 100.0 mg/kg/injection, schedule: Q01DX001 (oral), vehicle: water) was 125 % of control and the survivor count (dose: 100.0 mg/kg/injection, schedule: Q01DX005 (oral), vehicle: water) was 6 of 6. The survivor count (dose: 100.0 mg/kg/injection, schedule: Q01DX009 (ip), vehicle: citric acid) was 8 of 10, the survivor count (dose: 100.0 mg/kg/injection, schedule: Q01DX009 (ip), vehicle: clinical formulation) was 6 of 10 and the T/C (dose: 100.0 mg/kg/injection, schedule: Q04DX002 (ip), vehicle: Klucel (hydroxypropylcellulose) (HPC)) was 126 % of control. For the same compound, the survivor count (dose: 100.0 mg/kg/injection, schedule: Q04DX003 (ip), vehicle: citric acid) was 10 of 10, the survivor count (dose: 100.0 mg/kg/injection, schedule: Q04DX003 (ip), vehicle: clinical formulation) was 10 of 10 and the T/C (dose: 100.0 mg/kg/injection, schedule: Q04DX003 (ip), vehicle: saline with Tween-80) was 114, 153, 197, 221, 255 % of control. For the same compound, the T/C (dose: 100.0 mg/kg/injection, schedule: Q04DX003 (oral), vehicle: saline) was 148 % of control, the T/C (dose: 115.0 mg/kg/injection, schedule: Q01DX001 (ip), vehicle: saline) was 131 % of control and the T/C (dose: 115.0 mg/kg/injection, schedule: Q01DX Z (oral), vehicle: saline) was 144 % of control. For the same compound, the T/C (dose: 120.0 mg/kg/injection, schedule: Q## X008 (oral), vehicle: carboxymethylcellulose (CMC)) was 132 % of control, the T/C (dose: 120.0 mg/kg/injection, schedule: Q## X008 (oral), vehicle: other) was 141 % of control and the T/C (dose: 124.0 mg/kg/injection, schedule: Q01DX001 (ip), vehicle: acetone) was 145 % of control. For the same compound, the survivor count (dose: 128.0 mg/kg/injection, schedule: Q01DX001 (ip), vehicle: clinical formulation) was 6 of 10, the T/C (dose: 128.0 mg/kg/injection, schedule: Q01DX001 (oral), vehicle: clinical formulation) was 142 % of control and the T/C (dose: 128.0 mg/kg/injection, schedule: Q01DX001 (sc), vehicle: clinical formulation) was 135 % of control. For the same compound, the survivor count (dose: 128.0 mg/kg/injection, schedule: Q01DX009 (ip), vehicle: other) was 10 of 10, the survivor count (dose: 128.0 mg/kg/injection, schedule: Q01DX009 (ip), vehicle: saline) was 9 of 9 and the survivor count (dose: 128.0 mg/kg/injection, schedule: Q01DX009 (ip), vehicle: water) was 4 of 10 and 10 of 10. For the same compound, the survivor count (dose: 128.0 mg/kg/injection, schedule: Q04DX003 (ip), vehicle: acid diluted with saline) was 8 of 10, the survivor count (dose: 128.0 mg/kg/injection, schedule: Q04DX003 (ip), vehicle: clinical formulation) was 8 of 10 and the T/C (dose: 150.0 mg/kg/injection, schedule: Q01DX001 (ip), vehicle: Klucel (hydroxypropylcellulose) (HPC)) was 142 % of control. The T/C [2] was 147 % of control, the survivor count [2] was 2 of 8, 3 of 10, 4 of 10, 7 of 10 and the T/C (dose: 150.0 mg/kg/injection, schedule: Q01DX001 (ip), vehicle: saline with Tween-80) was 136 % of control. The T/C (dose: 150.0 mg/kg/injection, schedule: Q01DX001 (ip), vehicle: steroid suspending solution) was 129 % of control, the T/C (dose: 150.0 mg/kg/injection, schedule: Q01DX001 (oral), vehicle: Klucel (hydroxypropylcellulose) (HPC)) was 133 % of control and the T/C (dose: 150.0 mg/kg/injection, schedule: Q01DX001 (oral), vehicle: carboxymethylcellulose (CMC)) was 131 % of control. The T/C (dose: 150.0 mg/kg/injection, schedule: Q01DX001 (oral), vehicle: other, evaluated on day 40) was 143 % of control, the T/C (dose: 150.0 mg/kg/injection, schedule: Q01DX001 (oral), vehicle: other, evaluated on day 60) was 126, 126 [8 of 10 alive], 151 [9 of 10 alive], 163 % of control and the T/C (dose: 150.0 mg/kg/injection, schedule: Q01DX001 (oral), vehicle: saline) was 131 % of control. For the same compound, the survivor count (dose: 150.0 mg/kg/injection, schedule: Q01DX009 (ip), vehicle: saline with Tween-80) was 10 of 10, the survivor count (dose: 150.0 mg/kg/injection, schedule: Q01DX Z (oral), vehicle: carboxymethylcellulose (CMC)) was 6 of 6 and the T/C (dose: 150.0 mg/kg/injection, schedule: Q04DX003 (ip), vehicle: Klucel (hydroxypropylcellulose) (HPC), evaluated on day 5) was 109 and 135 % of control. The T/C (dose: 150.0 mg/kg/injection, schedule: Q04DX003 (ip), vehicle: Klucel (hydroxypropylcellulose) (HPC), evaluated on day 30) was 129 % of control, the T/C (dose: 150.0 mg/kg/injection, schedule: Q04DX003 (ip), vehicle: Klucel (hydroxypropylcellulose) (HPC), evaluated on day 60) was 109, 113, 120, 135 % of control and the survivor count (dose: 150.0 mg/kg/injection, schedule: Q04DX003 (ip), vehicle: clinical formulation) was 6 of 10. For the same compound, the survivor count (dose: 150.0 mg/kg/injection, schedule: Q04DX003 (ip), vehicle: lactic acid) was 6 of 9, the survivor count (dose: 150.0 mg/kg/injection, schedule: Q04DX003 (ip), vehicle: saline) was 10 of 10 and the survivor count (dose: 150.0 mg/kg/injection, schedule: Q08DX002 (ip), vehicle: other) was 1 of 8. The T/C (dose: 150.0 mg/kg/injection, schedule: Q## X002 (oral), vehicle: other) was 147 % of control, the T/C (dose: 160.0 mg/kg/injection, schedule: Q01DX001 (ip), vehicle: other) was 145 % of control and the survivor count (dose: 160.0 mg/kg/injection, schedule: Q#A X018 (ip), vehicle: other) was 10 of 10. For the same compound, the survivor count (dose: 160.0 mg/kg/injection, schedule: Q#A X018 (oral), vehicle: other) was 9 of 10, the T/C (dose: 170.0 mg/kg/injection, schedule: Q01DX001 (ip), vehicle: saline) was 142 % of control and the survivor count (dose: 170.0 mg/kg/injection, schedule: Q01DX Z (oral), vehicle: saline) was 6 of 6. The T/C (dose: 200.0 mg/kg/injection, schedule: Q01DX001 (oral), vehicle: saline with Tween-80) was 128 and 144 % of control, the T/C (dose: 200.0 mg/kg/injection, schedule: Q01DX001 (oral), vehicle: water) was 133 and 139 % of control and the survivor count (dose: 200.0 mg/kg/injection, schedule: Q01DX009 (ip), vehicle: citric acid) was 0 of 10. For the same compound, the survivor count (dose: 200.0 mg/kg/injection, schedule: Q01DX009 (ip), vehicle: clinical formulation) was 0 of 10, the T/C (dose: 200.0 mg/kg/injection, schedule: Q04DX002 (ip), vehicle: Klucel (hydroxypropylcellulose) (HPC)) was 129 % of control and the survivor count (dose: 200.0 mg/kg/injection, schedule: Q04DX003 (ip), vehicle: clinical formulation) was 2 of 10. For the same compound, the T/C (dose: 200.0 mg/kg/injection, schedule: Q04DX003 (ip), vehicle: saline with Tween-80) was 93, 125, 133 (2×), 136 % of control and the T/C (dose: 200.0 mg/kg/injection, schedule: Q04DX003 (ip), vehicle: saline) was 145 % of control.
